Measurements published in PMC1514790, “Tomosyn Inhibits Synaptic Vesicle Priming in Caenorhabditis elegans” (PLoS Biology, 2006).
Results are given in words; binding and its absence hold for the method and conditions named. Some entries that bind do so weakly or less than the wild type. Tags and fused reporters may be left off the sequences shown.

Amino acid sequences for entries named in this document (tags omitted).
UniProt P60881: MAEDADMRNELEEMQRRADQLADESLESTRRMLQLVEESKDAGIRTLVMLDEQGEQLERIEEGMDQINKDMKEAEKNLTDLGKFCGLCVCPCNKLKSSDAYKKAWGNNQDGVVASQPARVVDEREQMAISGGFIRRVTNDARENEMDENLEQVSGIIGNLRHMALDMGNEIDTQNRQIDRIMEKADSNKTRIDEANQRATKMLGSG

Assays:
[1] = target: T1, C. elegans syntaxin-GST (UNC-64 cytoplasmic domain, aa 1-266) (C. elegans) (UniProt O16000); assay: pull-down; binary: C. elegans GST syntaxin incubated with either rat SNAP-25 or TOM-1Ct alone, collected on glutathione agarose, washed; Coomassie Blue staining of supernatant and beads; both purified
T1 sequence: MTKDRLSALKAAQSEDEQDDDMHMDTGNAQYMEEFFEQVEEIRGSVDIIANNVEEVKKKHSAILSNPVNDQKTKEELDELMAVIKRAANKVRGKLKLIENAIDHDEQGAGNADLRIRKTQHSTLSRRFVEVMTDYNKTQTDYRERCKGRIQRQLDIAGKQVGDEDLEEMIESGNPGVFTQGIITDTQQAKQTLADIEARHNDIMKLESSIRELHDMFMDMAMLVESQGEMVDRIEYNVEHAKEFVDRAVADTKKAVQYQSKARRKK

[2] = target: T1, C. elegans syntaxin-GST (UNC-64 cytoplasmic domain, aa 1-266) (C. elegans); assay: pull-down; ~1.6 uM each of C. elegans syntaxin-GST, rat SNAP-25-His6 and His6-TOM-1Ct or His6-SNB-1, 2 h to overnight at 4 °C in D-buffer, isolated on glutathione agarose; Coomassie Blue staining, densitometry; both purified
[3] = target: T1, C. elegans syntaxin-GST (UNC-64 cytoplasmic domain, aa 1-266) (C. elegans); assay: pull-down; C. elegans syntaxin-GST incubated with C. elegans SNAP-25-His6 and His6T7-TOM-1Ct or His6T7-SNB-1, isolated on glutathione agarose; 4 °C, D-buffer (10 mM HEPES pH 7.9, 140 mM KCl, 0.5% Triton X-100, 0.1 mM PMSF); immunoblot with anti-GST, anti-His6, anti-T7; both purified

Molecule | binding [1] | binding [2] | binding [3]
Rat SNAP-25-His6 (from UniProt P60881 1-206) | binds | binds | 
C. elegans synaptobrevin SNB-1 cytoplasmic domain (aa 1-88), His6T7-tagged (domain or fragment, UniProt O02495 1-88, looked up, C. elegans synaptobrevin (SNB-1), cytoplasmic domain aa 1-88, lacking the TM domain, cloned into pRSETC; also called His6T7-tagged SNB-1; His6-SNB-1; source: recombinant, purified (Ni-NTA agarose)) MDAQGDAGAQGGSQGGPRPSNKRLQQTQAQVDEVVGIMKVNVEKVLERDQKLSQLDDRADALQEGASQFEKSAATLKRKYWWKNIKMM |  |  | binds weakly
C. elegans SNAP-25-His6 (RIC-4) (protein, UniProt O62414 1-207) MSGDDDIPEGLEAINLKMNATTDDSLESTRRMLALCEESKEAGIKTLVMLDDQGEQLERCEGALDTINQDMKEAEDHLKGMEKCCGLCVLPWNKTDDFEKTEFAKAWKKDDDGGVISDQPRITVGDSSMGPQGGYITKITNDAREDEMDENVQQVSTMVGNLRNMAIDMSTEVSNQNRQLDRIHDKAQSNEVRVESANKRAKNLITK |  |  | binds weakly
